Laboratory results as given in patent US20140227293A1.
No constants are given. Whether binding was seen depends on the method and setting. In cells and extracts the contact can be indirect. Some results given as binding are weak or reduced against the parent protein; the word gives no strength.

By UniProt entry, the sequences of proteins in these tests, tags left out. Where a name states a change or a piece, a line headed by the entry shows the natural chain unless it says otherwise. Chains listed by the source or under a name are the forms on record and can include a tag or linker.
endogenous SPIN90 of PAE cells (A0A8W4FEM2, form named): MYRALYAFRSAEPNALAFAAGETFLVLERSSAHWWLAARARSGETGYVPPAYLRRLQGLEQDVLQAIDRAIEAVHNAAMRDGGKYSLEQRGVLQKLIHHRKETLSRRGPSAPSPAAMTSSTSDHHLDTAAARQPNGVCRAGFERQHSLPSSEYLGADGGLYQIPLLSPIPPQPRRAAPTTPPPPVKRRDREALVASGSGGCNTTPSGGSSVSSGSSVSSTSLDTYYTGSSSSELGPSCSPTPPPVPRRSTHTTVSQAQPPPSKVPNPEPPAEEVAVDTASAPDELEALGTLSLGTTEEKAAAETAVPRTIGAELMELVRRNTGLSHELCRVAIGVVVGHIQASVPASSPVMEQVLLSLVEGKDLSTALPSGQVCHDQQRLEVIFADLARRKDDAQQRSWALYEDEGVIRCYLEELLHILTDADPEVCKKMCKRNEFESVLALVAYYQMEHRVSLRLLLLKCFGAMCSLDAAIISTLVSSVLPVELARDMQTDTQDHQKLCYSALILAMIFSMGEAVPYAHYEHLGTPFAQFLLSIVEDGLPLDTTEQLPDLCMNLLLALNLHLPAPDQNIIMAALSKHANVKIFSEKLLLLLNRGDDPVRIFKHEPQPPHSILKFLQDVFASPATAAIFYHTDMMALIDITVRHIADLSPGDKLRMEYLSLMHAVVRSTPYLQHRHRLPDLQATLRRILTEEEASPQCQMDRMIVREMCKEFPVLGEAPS

Tests used:
[1] = target: T1, immunoglobulin containing and proline rich receptor-1 (IGPR-1), human, full length, ectopically expressed in PAE cells (human) (UniProt Q96BF3); test: GST-SH3 pull-down from lysates of PAE cells expressing IGPR-1, anti-IGPR-1 immunoblot
T1 sequence (chain, N-glycosylated (apparent 55 kDa, 31 kDa after PNGase F)): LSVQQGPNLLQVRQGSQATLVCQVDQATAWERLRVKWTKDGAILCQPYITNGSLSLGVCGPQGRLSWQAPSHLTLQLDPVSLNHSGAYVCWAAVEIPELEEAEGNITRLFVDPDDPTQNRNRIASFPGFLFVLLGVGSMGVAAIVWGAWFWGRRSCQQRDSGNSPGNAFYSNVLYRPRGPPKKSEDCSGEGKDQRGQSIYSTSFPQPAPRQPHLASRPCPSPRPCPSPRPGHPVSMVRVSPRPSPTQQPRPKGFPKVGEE

[2] = target: T1, immunoglobulin containing and proline rich receptor-1 (IGPR-1), human, full length, ectopically expressed in PAE cells (human); test: figure legend (FIG. 6D schematic; FIG. 6E GST-SH3 pull-down)
[3] = target: T1, immunoglobulin containing and proline rich receptor-1 (IGPR-1), human, full length, ectopically expressed in PAE cells (human); test: concluding sentence of Example 7, referring to the SH3 array, pull-down and co-immunoprecipitation
[4] = target: T1, immunoglobulin containing and proline rich receptor-1 (IGPR-1), human, full length, ectopically expressed in PAE cells (human); test: co-immunoprecipitation from PAE cells expressing IGPR-1 (anti-IGPR-1 IP, anti-SPIN90 blot)

binding [1]	binding [2]	binding [3]	binding [4]	Substance
binds	binds			GST recombinant SH3 domain of CACNB2 (from UniProt P54288 86-155)
binds	binds	binds		GST recombinant SH3 domain of SPIN90 (from UniProt Q9NZQ3 1-58)
			binds	endogenous SPIN90 of PAE cells (from UniProt A0A8W4FEM2 1-720)
